According to publication PMC6610666:
Results are given in words; binding and its absence hold for the method and conditions named. In cells and extracts the contact can be indirect. A yes stands for co-enrichment or nearness to the bait. Other partners may have been found.

Protein sequences, listed by entry. Tags and fused reporters are not part of them.
UniProt Q8R0K9: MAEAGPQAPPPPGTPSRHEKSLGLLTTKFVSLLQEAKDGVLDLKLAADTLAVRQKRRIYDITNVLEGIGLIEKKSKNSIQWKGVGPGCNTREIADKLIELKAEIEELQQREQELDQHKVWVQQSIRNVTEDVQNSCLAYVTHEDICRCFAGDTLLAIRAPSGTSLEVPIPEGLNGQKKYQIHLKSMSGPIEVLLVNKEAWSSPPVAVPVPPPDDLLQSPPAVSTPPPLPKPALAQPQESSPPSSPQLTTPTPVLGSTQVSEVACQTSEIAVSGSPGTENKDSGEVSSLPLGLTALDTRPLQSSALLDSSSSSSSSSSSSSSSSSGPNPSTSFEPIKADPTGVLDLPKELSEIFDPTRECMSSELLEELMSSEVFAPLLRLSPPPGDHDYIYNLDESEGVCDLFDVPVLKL

What was measured:
[1] = target: LAP-tagged human E2F4 (human), Q16254; assay: affinity purification with mass spectrometry; LAP (EGFP, S tag)-tagged human E2F4 expressed in RPE cells (Flp-In system); tandem affinity purification; slices of the gel of the eluted fraction subjected to mass spectrometry; details: remark: other sources report otherwise
[2] = target: LAP-tagged mouse E2F4 (mouse) (UniProt Q8R0K9); assay: affinity purification with mass spectrometry; LAP (EGFP, S tag)-tagged mouse E2F4 expressed by lentivirus in RB family TKO mESCs; tandem affinity purification; slices of the gel of the eluted fraction subjected to mass spectrometry

Row | binding [1] | binding [2] | Binder
1 | binds |  | RB, P06400 1-928 (protein) MPPKTPRKTAATAAAAAAEPPAPPPPPPPEEDPEQDSGPEDLPLVRLEFEETEEPDFTALCQKLKIPDHVRERAWLTWEKVSSVDGVLGGYIQKKKELWGICIFIAAVDLDEMSFTFTELQKNIEISVHKFFNLLKEIDTSTKVDNAMSRLLKKYDVLFALFSKLERTCELIYLTQPSSSISTEINSALVLKVSWITFLLAKGEVLQMEDDLVISFQLMLCVLDYFIKLSPPMLLKEPYKTAVIPINGSPRTPRRGQNRSARIAKQLENDTRIIEVLCKEHECNIDEVKNVYFKNFIPFMNSLGLVTSNGLPEVENLSKRYEEIYLKNKDLDARLFLDHDKTLQTDSIDSFETQRTPRKSNLDEEVNVIPPHTPVRTVMNTIQQLMMILNSASDQPSENLISYFNNCTVNPKESILKRVKDIGYIFKEKFAKAVGQGCVEIGSQRYKLGVRLYYRVMESMLKSEEERLSIQNFSKLLNDNIFHMSLLACALEVVMATYSRSTSQNLDSGTDLSFPWILNVLNLKAFDFYKVIESFIKAEGNLTREMIKHLERCEHRIMESLAWLSDSPLFDLIKQSKDREGPTDHLESACPLNLPLQNNHTAADMYLSPVRSPKKKGSTTRVNSTANAETQATSAFQTQKPLKSTSLSLFYKKVYRLAYLRLNTLCERLLSEHPELEHIIWTLFQHTLQNEYELMRDRHLDQIMMCSMYGICKVKNIDLKFKIIVTAYKDLPHAVQETFKRVLIKEEEYDSIIVFYNSVFMQRLKTNILQYASTRPPTLSPIPHIPRSPYKFPSSPLRIPGGNIYISPLKSPYKISEGLPTPTKMTPRSRILVSIGESFGTSEKFQKINQMVCNSDRVLKRSAEGSNPPKPLKKLRFDIEGSDEADGSKHLPGESKFQQKLAEMTSTRTRMQKQKMNDSMDTSNKEEK
2 |  | binds | RanGAP1 (protein, UniProt P46061 1-589) MASEDIAKLAETLAKTQVAGGQLSFKGKGLKLNTAEDAKDVIKEIEEFDGLEALRLEGNTVGVEAARVIAKALEKKSELKRCHWSDMFTGRLRSEIPPALISLGEGLITAGAQLVELDLSDNAFGPDGVRGFEALLKSPACFTLQELKLNNCGMGIGGGKILAAALTECHRKSSAQGKPLALKVFVAGRNRLENDGATALAEAFGIIGTLEEVHMPQNGINHPGVTALAQAFAINPLLRVINLNDNTFTEKGGVAMAETLKTLRQVEVINFGDCLVRSKGAVAIADAVRGGLPKLKELNLSFCEIKRDAALVVAEAVADKAELEKLDLNGNALGEEGCEQLQEVMDSFNMAKVLASLSDDEGEDEDEEEEGEEDDEEEEDEEDEEDDDEEEEEQEEEEEPPQRGSGEEPATPSRKILDPNSGEPAPVLSSPTPTDLSTFLSFPSPEKLLRLGPKVSVLIVQQTDTSDPEKVVSAFLKVASVFRDDASVKTAVLDAIDALMKKAFSCSSFNSNTFLTRLLIHMGLLKSEDKIKAIPSLHGPLMVLNHVVRQDYFPKALAPLLLAFVTKPNGALETCSFARHNLLQTLYNI
